From the supplement of paper PMC11732987, “Enantioselective OTUD7B fragment discovery through chemoproteomics screening and high-throughput optimisation” (Communications Chemistry, 2025)
This is one part of the list. The data scatter; read single values as rough.

The chains behind the UniProt entries cited, without tags or fusion partners. Where a name states a change or a piece, a line headed by the entry shows the natural chain unless it says otherwise.
UniProt Q13601: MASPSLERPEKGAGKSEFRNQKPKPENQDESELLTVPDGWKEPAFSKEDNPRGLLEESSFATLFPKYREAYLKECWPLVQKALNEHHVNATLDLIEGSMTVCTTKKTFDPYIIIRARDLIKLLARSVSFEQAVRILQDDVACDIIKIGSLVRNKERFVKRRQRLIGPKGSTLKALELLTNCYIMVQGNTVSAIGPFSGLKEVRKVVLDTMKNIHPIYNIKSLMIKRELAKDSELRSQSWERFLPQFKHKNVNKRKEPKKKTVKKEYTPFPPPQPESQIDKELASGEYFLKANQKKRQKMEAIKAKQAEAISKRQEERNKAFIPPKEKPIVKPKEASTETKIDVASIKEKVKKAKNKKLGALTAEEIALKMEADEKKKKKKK
UniProt P48059: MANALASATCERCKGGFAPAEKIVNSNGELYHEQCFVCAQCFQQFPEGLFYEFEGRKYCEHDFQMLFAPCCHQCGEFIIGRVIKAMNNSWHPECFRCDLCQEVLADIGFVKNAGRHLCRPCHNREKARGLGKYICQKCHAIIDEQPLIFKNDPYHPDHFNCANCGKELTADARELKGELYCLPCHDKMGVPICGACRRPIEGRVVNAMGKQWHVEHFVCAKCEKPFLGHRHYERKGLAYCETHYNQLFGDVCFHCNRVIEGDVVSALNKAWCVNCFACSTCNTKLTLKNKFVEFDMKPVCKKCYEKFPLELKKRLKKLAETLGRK
UniProt P36776: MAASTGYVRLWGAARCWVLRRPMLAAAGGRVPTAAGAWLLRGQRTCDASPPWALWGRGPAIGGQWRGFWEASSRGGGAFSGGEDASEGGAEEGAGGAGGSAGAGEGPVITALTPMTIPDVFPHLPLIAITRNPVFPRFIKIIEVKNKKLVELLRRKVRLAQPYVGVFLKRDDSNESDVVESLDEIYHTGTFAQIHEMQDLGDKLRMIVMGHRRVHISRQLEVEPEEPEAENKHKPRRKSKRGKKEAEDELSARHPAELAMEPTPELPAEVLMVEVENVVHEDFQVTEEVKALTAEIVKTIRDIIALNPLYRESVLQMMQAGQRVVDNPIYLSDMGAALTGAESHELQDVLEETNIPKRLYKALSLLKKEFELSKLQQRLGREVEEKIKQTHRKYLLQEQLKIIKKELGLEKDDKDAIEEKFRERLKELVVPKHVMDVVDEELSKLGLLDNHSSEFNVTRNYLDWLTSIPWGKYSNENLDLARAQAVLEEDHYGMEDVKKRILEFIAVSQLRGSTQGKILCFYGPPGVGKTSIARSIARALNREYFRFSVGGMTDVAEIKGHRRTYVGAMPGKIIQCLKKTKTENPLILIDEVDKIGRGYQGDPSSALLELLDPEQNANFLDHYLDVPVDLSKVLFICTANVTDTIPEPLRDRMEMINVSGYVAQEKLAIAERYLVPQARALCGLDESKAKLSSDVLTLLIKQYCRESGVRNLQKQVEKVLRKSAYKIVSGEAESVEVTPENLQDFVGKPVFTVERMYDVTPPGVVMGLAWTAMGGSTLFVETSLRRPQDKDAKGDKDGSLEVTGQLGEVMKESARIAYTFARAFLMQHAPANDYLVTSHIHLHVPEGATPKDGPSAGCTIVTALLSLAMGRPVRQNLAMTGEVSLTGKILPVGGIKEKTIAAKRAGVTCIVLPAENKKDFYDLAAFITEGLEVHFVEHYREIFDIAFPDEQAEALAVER

Legend:
[1] = compound: ClCC(=O)N[C@@H]1CCCc2ccccc12; experiment: log2 mean competition ratio of IA-DTB cysteine labelling (DMSO/compound) (log2 ratio); higher = stronger cysteine engagement by compound; settings: treatment time: 4 h, cell line lysate: HEK293T
Experimental: (§1)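 IA-DTB competitive cysteine chemoproteomics in HEK293T RIPA lysate. Lysates were treated with compound 29 or 30 at 50 or 200 µM for 4 h, then IA-DTB (500 µM, 1 h), trypsin-digested, NeutrAvidin-enriched and analysed by diaPASEF. Competition ratio = intensity DMSO / intensity compound (n=4 treated, n=64 DMSO); binding: mean log2 CR ≥ 1 and p ≤ 0.05 plus QC filters. Target is the cysteine site.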

[2] = compound: ClCC(=O)N[C@H]1CCCc2ccccc12; experiment: as above; settings: treatment time: 4 h, cell line lysate: HEK293T
Experimental: as §1

Target | log2 mean competition ratio ([1]; 50 µM) | log2 mean competition ratio ([1]; 200 µM) | log2 mean competition ratio ([2]; 50 µM) | log2 mean competition ratio ([2]; 200 µM)
LGR4 C339 | -0.0551 | -0.0385 | 0.143 | -0.125
KRR1 C75 (UniProt Q13601) | 0.0305 | -0.229 | 0.396 | -0.217
LIMS1 C94 (UniProt P48059) | 0.172 | 0.144 | 0.245 | 0.0235
LONP1 C520 (UniProt P36776) | 0.267 | 0.0109 | 0.307 | 0.112
LRPPRC C863 | 0.202 | -0.0855 | 0.516 | -0.0457
